The shares of active, inactive and inconclusive entries below differ from those in the screen. For some of these results: Potencies of inconclusive entries are doubtful fits and often do not repeat. Active and inactive are the calls of the source. Calls come from the whole dose curve; as a rule, active = well fitted curve in the direction sought with a large enough effect; inconclusive = small, poorly fitted or top-dose-only effect, or another doubt; inactive = no such curve, though single readings can be large; an effect the other way counts as inactive or inconclusive.
Tests used:
[1] = qHTS of pediatric cancer cell lines to identify multiple opportunities for drug repurposing: Confirmatory screen for BT-12 cells (AID 1347112); conditions: BT-12 rhabdoid tumor cells, viability; series mostly up to 45.9 µM; note: nearly all actives have a fitted effect of over 55% in size; note: potency is the fitted concentration of half-maximal effect; for activity change, negative = cytotoxic: % is set by controls: 0 for no effect and ±100 for the full control effect
Method in brief: (§1)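 Viability after 48 h compound treatment at 37C, 500-1,000 cells/well, read as ATP luminescence with CellTiter-Glo. Primary screens used 11-point (MIPE, 0.78 nM-46 µM) or 8-point (NPC, 0.59 nM-46 µM) final concentrations; follow-up screens used 11-point dilutions.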

[2] = qHTS of pediatric cancer cell lines to identify multiple opportunities for drug repurposing: Confirmatory screen for LAN-5 cells (AID 1347113); conditions: LAN-5 neuroblastoma cell viability; activity change, negative = cytotoxicity: at 45.9 µM (top of the series); series mostly up to 45.9 µM; note: nearly all actives have a fitted effect of over 65% in size; note: potency is the fitted concentration of half-maximal effect; for activity change, negative = cytotoxicity: % is set by controls: 0 for no effect and ±100 for the full control effect
Method in brief: as §1

[3] = qHTS of pediatric cancer cell lines to identify multiple opportunities for drug repurposing: Confirmatory screen for SJ-GBM2 cells (AID 1347116); conditions: SJ-GBM2 glioblastoma cells, viability; series mostly up to 45.9 µM; note: nearly all actives have a fitted effect of over 60% in size; note: potency is the fitted concentration of half-maximal effect;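 for activity change, negative = cytotoxic: plate controls were DMSO for no effect and bortezomib for full effect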
Method in brief: (§2)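 Viability measured as metabolically active cells via CellTiter-Glo luminescence following 48 hours of compound exposure, 11-point dilutions in confirmatory testing. 500-1,000 cells/well plated 5 hours before dosing; controls were DMSO and 2.3 µM bortezomib.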

[4] = qHTS of pediatric cancer cell lines to identify multiple opportunities for drug repurposing: Confirmatory screen for BT-37 cells (AID 1347117); conditions: BT-37 pediatric cancer cells, viability; series mostly up to 45.9 µM; note: nearly all actives have a fitted effect of over 55% in size; note: potency is the fitted concentration of half-maximal effect;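 for activity change, negative = cytotoxic: plate controls were DMSO for no effect and bortezomib for full effect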
Method in brief: as §1

[5] = qHTS of pediatric cancer cell lines to identify multiple opportunities for drug repurposing: Confirmatory screen for TC32 cells (AID 1347118); conditions: TC32 Ewing sarcoma cells viability qHTS; series mostly up to 45.9 µM; note: nearly all actives have a fitted effect of over 65% in size; note: potency is the fitted concentration of half-maximal effect; for activity change, negative = cytotoxicity: % is set by controls: 0 for no effect and ±100 for the full control effect
Method in brief: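 qHTS, TC32, 48 h drug treatment, CellTiter-Glo luminescence as a proxy for metabolically active cells; primary top concentration 46 µM (MIPE 11-pt, NPC 8-pt); confirmatory 11-pt.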

[6] = qHTS of pediatric cancer cell lines to identify multiple opportunities for drug repurposing: Confirmatory screen for NB-EBc1 cells (AID 1347115); conditions: NB-EBc1 neuroblastoma cells, viability (cytotoxicity); activity change, negative = cytotoxic: at 45.9 µM (top of the series); note: nearly all actives have a fitted effect of over 45% in size; note: potency is the fitted concentration of half-maximal effect; for activity change, negative = cytotoxic: % is set by controls: 0 for no effect and ±100 for the full control effect
Method in brief: as §1

[7] = qHTS of pediatric cancer cell lines to identify multiple opportunities for drug repurposing: Confirmatory screen for MG 63 (6-TG R) cells (AID 1347119); conditions: MG-63 (6-TG resistant) osteosarcoma viability; activity change, negative = cytotoxicity: at 45.9 µM (top of the series); note: nearly all actives have a fitted effect of over 55% in size; note: potency is the fitted concentration of half-maximal effect;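 for activity change, negative = cytotoxicity: plate controls were DMSO neutral control for no effect and bortezomib for full effect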
Method in brief: as §1

[8] = qHTS of pediatric cancer cell lines to identify multiple opportunities for drug repurposing: Confirmatory screen for A673 cells (AID 1347110); conditions: A673 Ewing sarcoma cell viability; series mostly up to 45.9 µM; note: potency is the fitted concentration of half-maximal effect; nearly all actives have a fitted effect of over 65% in size
Method in brief: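 Forty-eight-hour viability assay. Follow-up compounds ran at 11-point dilutions; positive control bortezomib at 2.3 uM final, neutral control DMSO.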

[9] = qHTS of pediatric cancer cell lines to identify multiple opportunities for drug repurposing: Confirmatory screen for SK-N-MC cells (AID 1347111); conditions: SK-N-MC cell viability; series mostly up to 45.9 µM;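 note: cells exposed to compound for 48 h before the readout; plate controls were DMSO for no effect and bortezomib for full effect; nearly all actives have a fitted effect of over 70% in size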
Method in brief: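 SK-N-MC cells at 500-1,000 cells/well in growth media were pre-incubated 5 h, then exposed to compounds at 11-point dilutions for 48 h at 37 degrees C, 5% CO2. Viability was read as CellTiter-Glo luminescence.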

[10] = qHTS of pediatric cancer cell lines to identify multiple opportunities for drug repurposing: Confirmatory screen for DAOY cells (AID 1347114); conditions: DAOY medulloblastoma cells viability, cytotoxicity qHTS; series mostly up to 45.9 µM; note: potency is the fitted concentration of half-maximal effect; nearly all actives have a fitted effect of over 65% in size
Method in brief: as §2

Nc1ccccc1NC(=O)c1ccc(CNc2nccc(-c3cccnc3)n2)cc1
Potency [1]: inconclusive: 5.85 µM [cytotoxic, full curve, poor fit]
Potency [2]: inconclusive: 2.08 µM [cytotoxic, partial curve, poor fit]
Potency [3]: active: 1.47 µM
Potency [4]: inactive
Potency [5]: inactive

Cc1c(C(=O)NN2CCCCC2)nn(-c2ccc(Cl)cc2Cl)c1-c1ccc(Cl)cc1
Potency [1]: inconclusive: 23.3 µM [cytotoxic, single point]
Potency [2]: inconclusive: 36.9 µM [cytotoxic, partial curve, poor fit]
Potency [6]: inconclusive: 26.1 µM [cytotoxic, partial curve, poor fit]
Potency [3]: inactive
Potency [4]: inconclusive: 14.7 µM [cytotoxic, partial curve]
activity change, negative = cytotoxicity [7]: inconclusive: -34.3% [cytotoxic]

S=P(N1CC1)(N1CC1)N1CC1
Potency [1]: inactive
Potency [2]: inconclusive: 20.8 µM [cytotoxic, single point]
Potency [6]: inconclusive: 14.7 µM [cytotoxic, partial curve]
Potency [4]: inconclusive: 14.7 µM [cytotoxic, partial curve]

C=CC(=O)Nc1cccc(Oc2nc(Nc3ccc(N4CCN(C)CC4)cc3OC)ncc2Cl)c1
Potency [1]: inconclusive: 32.9 µM [cytotoxic, partial curve, poor fit]
Potency [2]: inconclusive: 23.3 µM [cytotoxic, partial curve, poor fit]
Potency [3]: active: 11.7 µM
Potency [5]: active: 14.7 µM

Nc1nc(F)nc2c1ncn2[C@@H]1O[C@H](CO)[C@@H](O)[C@@H]1O
Potency [8]: inconclusive: 26.1 µM [cytotoxic, single point]
Potency [3]: inconclusive: 5.85 µM [cytotoxic, full curve, poor fit]

CSc1cccc(Nc2ncc3cc(-c4c(Cl)cccc4Cl)c(=O)n(C)c3n2)c1
Potency [1]: inconclusive: 18.5 µM [cytotoxic, partial curve, poor fit]
Potency [2]: inconclusive: 5.22 µM [cytotoxic, full curve]
Potency [3]: inconclusive: 0.414 µM [cytotoxic, full curve, poor fit]

CCc1cc(C(C)=NOCc2ccc(C3CCCCC3)c(C(F)(F)F)c2)ccc1CN1CC(C(=O)O)C1
Potency [1]: inconclusive: 29.3 µM [cytotoxic, partial curve]
Potency [2]: inconclusive: 32.9 µM [cytotoxic, single point]
Potency [3]: inconclusive: 16.5 µM [cytotoxic, partial curve, poor fit]
Potency [4]: inconclusive: 26.1 µM [cytotoxic, partial curve]
Potency [7]: inactive

CC(=O)O[C@@]12CO[C@H]1C[C@H](O)[C@@]1(C)C(=O)[C@H](O)C3=C(C)[C@@H](OC(=O)C(O)[C@@H](NC(=O)OC(C)(C)C)c4ccccc4)C[C@@](O)([C@@H](OC(=O)c4ccccc4)[C@@H]21)C3(C)C (stereo not given in full)
Potency [1]: inconclusive: 0.0261 µM [cytotoxic, full curve, poor fit]
Potency [2]: inactive
Potency [6]: inconclusive: 0.0261 µM [cytotoxic, full curve]
Potency [3]: inconclusive: 0.0131 µM [cytotoxic, full curve, poor fit]
Potency [4]: inconclusive: 0.0083 µM [cytotoxic, full curve]
Potency [7]: active: 0.0074 µM

NC(=O)c1cccnc1
Potency [1]: inconclusive: 0.0928 µM [rising, full curve, poor fit]
Potency [2]: inactive
Potency [6]: active: 10.4 µM
Potency [3]: inconclusive: 10.4 µM [rising, full curve, poor fit]
Potency [4]: inconclusive: 18.5 µM [cytotoxic, partial curve, poor fit]
Potency [5]: active: 16.5 µM
Potency [7]: inconclusive: 32.9 µM [cytotoxic, single point]

CCC(=O)O[C@]1(C(=O)SCF)[C@H](C)C[C@H]2[C@@H]3C[C@H](F)C4=CC(=O)C=C[C@]4(C)[C@@]3(F)[C@@H](O)C[C@@]21C
Potency [9]: inactive
Potency [1]: inactive
Potency [2]: inactive
Potency [10]: inconclusive: 1.47 µM [cytotoxic, full curve, poor fit]
Potency [6]: inconclusive: 0.0928 µM [rising, full curve]
Potency [3]: inconclusive: 0.147 µM [cytotoxic, full curve, poor fit]
Potency [4]: inactive
Potency [5]: inactive

CCC(=O)O[C@]1(C(=O)CCl)[C@@H](C)C[C@H]2[C@@H]3CCC4=CC(=O)C=C[C@]4(C)[C@@]3(F)[C@@H](O)C[C@@]21C
Potency [9]: inactive
Potency [1]: inactive
Potency [6]: inactive
Potency [3]: inactive
Potency [5]: inactive
